These are yes or no findings as the source states them, for the method shown. Binding seen in cells or lysates may run through a third protein. Some entries that bind do so weakly or less than the wild type. Sequences can lack the tags named with a protein.

This assay concerns the target T1, P2K1 (DORN1, LecRK-I.9; extracellular ATP receptor), fused to the N-terminal fragment of firefly luciferase (Arabidopsis thaliana) (UniProt Q9LSR8).
T1 sequence: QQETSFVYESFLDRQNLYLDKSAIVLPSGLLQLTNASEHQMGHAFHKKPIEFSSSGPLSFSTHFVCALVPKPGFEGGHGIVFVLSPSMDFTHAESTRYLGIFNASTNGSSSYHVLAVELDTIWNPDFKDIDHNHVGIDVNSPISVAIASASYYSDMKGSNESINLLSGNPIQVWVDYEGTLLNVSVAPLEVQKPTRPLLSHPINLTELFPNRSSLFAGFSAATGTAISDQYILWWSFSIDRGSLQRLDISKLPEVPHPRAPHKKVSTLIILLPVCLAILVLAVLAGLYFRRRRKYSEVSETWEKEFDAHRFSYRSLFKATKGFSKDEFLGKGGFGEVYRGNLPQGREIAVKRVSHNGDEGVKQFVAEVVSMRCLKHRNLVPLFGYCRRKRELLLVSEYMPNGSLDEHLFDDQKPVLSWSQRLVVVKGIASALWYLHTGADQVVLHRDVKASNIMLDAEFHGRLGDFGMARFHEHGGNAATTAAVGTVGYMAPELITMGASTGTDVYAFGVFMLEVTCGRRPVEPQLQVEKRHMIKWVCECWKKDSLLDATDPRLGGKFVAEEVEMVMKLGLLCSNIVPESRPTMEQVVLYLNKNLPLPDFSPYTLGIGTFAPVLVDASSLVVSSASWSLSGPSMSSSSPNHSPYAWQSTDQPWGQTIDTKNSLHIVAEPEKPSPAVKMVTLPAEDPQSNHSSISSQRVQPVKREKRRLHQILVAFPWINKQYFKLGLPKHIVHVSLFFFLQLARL
Briefly: split reporter; split-luciferase complementation imaging in N. benthamiana leaves, Agrobacterium infiltration, 48 h, 1 mM D-luciferin; mock or 500 uM ATPγS added, panels at 15 min and 1 h; empty vectors as controls.

B1: PAT9 (protein S-acyltransferase 9), fused to the C-terminal fragment of firefly luciferase (enzyme)
chain: MAGRVFEAWKGSNKFLFGGRLIFGPDAWSIPFTFLLIITPVCFFSVFVATHLRRELLPNNAGHVFLVAGVLFTVFVLILLFLTSARDPGIVPRNSHPPEEELCYDTTVSSDGRQTPTVQIPRTKEVMVYGVSVRVKYCDTCMLYRPPRCSHCSICNNCVERFDHHCPWRNYRYFFMFVSSATILCIYIFSMSALYIKVLMDNHQGTVWRAMRESPWAVMLMIYCFISLWFVGGLTGFHLYLISTNQTTYENFRYRSDNRINVYNRGCSNNFFETFCSKVKPSRNDFRAFIKEEPPRNITLATTWERPEEADEENREERRQKVEDDLDIDEDVMKLQQRLNDEEGSDTAHHKIDIDQMRIGSNERAPTIRSEARHGNWGARSNAQEEDVIAGSSVRESRSYAAAEEGR
For the molecule B1, the binding result is reported as “binds”.

Values taken from PMC8115640.
